Chains of the proteins cited; added tags and fusions are not shown. Residues count along the entry.
UniProt Q13200: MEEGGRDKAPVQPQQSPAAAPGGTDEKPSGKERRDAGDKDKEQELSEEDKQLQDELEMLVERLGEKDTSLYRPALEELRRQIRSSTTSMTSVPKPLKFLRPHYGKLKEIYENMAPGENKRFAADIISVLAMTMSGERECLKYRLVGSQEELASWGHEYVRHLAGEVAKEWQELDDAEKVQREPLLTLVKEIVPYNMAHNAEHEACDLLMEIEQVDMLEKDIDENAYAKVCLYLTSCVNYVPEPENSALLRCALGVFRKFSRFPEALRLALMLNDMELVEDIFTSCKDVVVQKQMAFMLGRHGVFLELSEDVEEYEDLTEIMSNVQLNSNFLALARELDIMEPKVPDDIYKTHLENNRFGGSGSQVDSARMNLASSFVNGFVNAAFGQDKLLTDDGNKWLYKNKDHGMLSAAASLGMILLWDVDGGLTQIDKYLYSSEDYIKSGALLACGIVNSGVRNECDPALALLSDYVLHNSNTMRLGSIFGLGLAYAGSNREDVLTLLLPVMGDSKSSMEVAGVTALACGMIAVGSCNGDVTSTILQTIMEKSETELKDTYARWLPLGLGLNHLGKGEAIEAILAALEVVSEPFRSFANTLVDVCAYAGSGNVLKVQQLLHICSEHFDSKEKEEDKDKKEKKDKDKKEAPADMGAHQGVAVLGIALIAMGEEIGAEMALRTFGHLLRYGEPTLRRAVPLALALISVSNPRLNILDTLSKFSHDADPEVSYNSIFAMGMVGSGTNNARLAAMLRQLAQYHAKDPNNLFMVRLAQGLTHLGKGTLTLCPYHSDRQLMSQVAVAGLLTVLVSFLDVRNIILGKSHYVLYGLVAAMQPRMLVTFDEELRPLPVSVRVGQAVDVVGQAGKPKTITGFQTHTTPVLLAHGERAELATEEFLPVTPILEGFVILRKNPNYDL
UniProt P11021, residues 19-654: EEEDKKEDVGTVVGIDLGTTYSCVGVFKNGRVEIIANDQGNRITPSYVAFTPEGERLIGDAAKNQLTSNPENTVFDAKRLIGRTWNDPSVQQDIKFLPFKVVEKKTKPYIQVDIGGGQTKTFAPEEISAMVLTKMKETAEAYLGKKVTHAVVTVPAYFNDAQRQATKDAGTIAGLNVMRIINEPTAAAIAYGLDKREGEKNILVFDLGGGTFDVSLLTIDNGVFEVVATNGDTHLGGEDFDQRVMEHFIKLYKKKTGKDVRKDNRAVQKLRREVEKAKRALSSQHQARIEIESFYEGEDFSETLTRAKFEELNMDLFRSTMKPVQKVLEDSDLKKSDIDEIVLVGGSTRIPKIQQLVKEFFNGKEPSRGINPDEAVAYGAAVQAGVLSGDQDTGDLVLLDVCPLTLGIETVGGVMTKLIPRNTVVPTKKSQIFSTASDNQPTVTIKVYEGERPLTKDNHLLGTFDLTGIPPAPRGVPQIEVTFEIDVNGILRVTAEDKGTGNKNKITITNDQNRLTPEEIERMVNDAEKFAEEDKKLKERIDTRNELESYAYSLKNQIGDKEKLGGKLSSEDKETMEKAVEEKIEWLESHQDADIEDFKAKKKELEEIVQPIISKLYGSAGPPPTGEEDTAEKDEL
UniProt Q15436: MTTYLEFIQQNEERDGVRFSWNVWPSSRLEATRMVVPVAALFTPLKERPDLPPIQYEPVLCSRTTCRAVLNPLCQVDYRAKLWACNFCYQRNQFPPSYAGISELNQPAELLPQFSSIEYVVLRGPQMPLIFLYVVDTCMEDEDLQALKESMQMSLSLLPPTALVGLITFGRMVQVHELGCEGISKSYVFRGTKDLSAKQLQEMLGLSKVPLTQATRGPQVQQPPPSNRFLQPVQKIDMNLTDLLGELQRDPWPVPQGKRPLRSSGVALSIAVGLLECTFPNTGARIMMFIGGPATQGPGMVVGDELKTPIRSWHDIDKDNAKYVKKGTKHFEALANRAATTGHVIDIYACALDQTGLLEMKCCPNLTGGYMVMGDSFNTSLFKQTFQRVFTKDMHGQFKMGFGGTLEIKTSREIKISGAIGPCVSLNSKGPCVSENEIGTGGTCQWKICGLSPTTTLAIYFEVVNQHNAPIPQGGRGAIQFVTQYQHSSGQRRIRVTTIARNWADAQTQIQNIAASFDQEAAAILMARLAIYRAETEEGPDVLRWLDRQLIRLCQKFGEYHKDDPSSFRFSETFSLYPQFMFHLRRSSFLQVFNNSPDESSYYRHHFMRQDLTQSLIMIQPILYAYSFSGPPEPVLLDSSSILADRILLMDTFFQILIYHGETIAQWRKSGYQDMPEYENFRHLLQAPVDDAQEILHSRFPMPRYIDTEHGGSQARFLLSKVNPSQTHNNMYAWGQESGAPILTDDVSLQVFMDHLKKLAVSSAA
UniProt O95347: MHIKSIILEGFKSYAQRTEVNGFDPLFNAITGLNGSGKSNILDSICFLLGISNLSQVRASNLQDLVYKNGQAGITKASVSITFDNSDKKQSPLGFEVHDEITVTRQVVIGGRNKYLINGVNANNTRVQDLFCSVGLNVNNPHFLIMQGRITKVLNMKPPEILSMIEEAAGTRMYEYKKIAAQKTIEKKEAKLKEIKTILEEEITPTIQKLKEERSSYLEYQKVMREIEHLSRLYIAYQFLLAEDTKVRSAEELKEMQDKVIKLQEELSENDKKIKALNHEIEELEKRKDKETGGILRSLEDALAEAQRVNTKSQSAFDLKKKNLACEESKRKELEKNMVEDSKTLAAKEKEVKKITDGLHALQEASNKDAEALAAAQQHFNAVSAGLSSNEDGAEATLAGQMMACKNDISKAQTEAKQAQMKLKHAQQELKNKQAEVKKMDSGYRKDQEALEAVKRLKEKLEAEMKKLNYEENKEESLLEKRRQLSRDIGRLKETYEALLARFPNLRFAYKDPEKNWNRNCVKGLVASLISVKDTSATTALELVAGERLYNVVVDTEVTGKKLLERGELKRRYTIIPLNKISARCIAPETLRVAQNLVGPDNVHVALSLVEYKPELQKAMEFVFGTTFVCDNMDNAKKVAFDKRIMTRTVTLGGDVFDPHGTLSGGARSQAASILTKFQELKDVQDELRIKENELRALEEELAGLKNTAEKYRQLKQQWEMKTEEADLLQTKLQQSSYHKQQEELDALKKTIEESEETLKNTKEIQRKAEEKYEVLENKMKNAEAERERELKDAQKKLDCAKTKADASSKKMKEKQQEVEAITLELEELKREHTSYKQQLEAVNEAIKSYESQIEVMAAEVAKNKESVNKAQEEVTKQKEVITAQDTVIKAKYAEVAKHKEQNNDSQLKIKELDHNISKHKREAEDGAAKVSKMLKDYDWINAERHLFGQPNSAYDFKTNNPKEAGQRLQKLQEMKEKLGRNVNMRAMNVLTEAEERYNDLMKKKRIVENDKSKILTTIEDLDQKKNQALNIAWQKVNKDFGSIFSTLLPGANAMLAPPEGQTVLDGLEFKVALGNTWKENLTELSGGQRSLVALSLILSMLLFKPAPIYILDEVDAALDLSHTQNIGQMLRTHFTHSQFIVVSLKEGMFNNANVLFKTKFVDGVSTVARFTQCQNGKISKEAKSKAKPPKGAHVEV
UniProt Q9UQE7: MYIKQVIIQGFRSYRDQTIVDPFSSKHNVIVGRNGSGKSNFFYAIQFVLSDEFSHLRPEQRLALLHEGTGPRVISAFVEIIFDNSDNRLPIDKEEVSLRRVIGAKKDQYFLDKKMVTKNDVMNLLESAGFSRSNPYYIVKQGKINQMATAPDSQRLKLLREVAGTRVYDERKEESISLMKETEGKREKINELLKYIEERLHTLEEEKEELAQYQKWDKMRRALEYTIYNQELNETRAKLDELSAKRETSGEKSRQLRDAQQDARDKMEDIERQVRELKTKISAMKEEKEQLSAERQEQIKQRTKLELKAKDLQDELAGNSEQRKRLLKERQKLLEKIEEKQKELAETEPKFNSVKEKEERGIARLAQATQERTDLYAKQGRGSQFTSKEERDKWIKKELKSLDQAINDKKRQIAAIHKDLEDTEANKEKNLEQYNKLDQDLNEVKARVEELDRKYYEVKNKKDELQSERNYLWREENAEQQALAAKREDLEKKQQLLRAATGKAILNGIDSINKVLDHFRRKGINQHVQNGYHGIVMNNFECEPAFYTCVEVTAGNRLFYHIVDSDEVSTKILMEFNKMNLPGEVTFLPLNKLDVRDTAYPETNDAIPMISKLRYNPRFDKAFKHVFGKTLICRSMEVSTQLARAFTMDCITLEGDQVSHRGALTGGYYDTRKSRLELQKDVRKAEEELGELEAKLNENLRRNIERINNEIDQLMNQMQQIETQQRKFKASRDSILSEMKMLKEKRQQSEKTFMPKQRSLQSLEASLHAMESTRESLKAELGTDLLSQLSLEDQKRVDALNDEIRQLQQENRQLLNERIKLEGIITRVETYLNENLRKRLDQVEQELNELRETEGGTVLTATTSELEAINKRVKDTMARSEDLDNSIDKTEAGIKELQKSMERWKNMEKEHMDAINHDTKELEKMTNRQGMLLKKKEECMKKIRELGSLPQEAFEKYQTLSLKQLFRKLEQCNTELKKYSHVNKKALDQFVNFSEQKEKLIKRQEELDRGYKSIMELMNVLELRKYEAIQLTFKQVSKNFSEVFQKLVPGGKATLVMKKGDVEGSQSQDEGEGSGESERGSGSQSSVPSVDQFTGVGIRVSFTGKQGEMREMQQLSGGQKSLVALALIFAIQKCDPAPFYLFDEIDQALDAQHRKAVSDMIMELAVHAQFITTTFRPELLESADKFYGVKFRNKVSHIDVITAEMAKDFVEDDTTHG
UniProt Q9NTJ3: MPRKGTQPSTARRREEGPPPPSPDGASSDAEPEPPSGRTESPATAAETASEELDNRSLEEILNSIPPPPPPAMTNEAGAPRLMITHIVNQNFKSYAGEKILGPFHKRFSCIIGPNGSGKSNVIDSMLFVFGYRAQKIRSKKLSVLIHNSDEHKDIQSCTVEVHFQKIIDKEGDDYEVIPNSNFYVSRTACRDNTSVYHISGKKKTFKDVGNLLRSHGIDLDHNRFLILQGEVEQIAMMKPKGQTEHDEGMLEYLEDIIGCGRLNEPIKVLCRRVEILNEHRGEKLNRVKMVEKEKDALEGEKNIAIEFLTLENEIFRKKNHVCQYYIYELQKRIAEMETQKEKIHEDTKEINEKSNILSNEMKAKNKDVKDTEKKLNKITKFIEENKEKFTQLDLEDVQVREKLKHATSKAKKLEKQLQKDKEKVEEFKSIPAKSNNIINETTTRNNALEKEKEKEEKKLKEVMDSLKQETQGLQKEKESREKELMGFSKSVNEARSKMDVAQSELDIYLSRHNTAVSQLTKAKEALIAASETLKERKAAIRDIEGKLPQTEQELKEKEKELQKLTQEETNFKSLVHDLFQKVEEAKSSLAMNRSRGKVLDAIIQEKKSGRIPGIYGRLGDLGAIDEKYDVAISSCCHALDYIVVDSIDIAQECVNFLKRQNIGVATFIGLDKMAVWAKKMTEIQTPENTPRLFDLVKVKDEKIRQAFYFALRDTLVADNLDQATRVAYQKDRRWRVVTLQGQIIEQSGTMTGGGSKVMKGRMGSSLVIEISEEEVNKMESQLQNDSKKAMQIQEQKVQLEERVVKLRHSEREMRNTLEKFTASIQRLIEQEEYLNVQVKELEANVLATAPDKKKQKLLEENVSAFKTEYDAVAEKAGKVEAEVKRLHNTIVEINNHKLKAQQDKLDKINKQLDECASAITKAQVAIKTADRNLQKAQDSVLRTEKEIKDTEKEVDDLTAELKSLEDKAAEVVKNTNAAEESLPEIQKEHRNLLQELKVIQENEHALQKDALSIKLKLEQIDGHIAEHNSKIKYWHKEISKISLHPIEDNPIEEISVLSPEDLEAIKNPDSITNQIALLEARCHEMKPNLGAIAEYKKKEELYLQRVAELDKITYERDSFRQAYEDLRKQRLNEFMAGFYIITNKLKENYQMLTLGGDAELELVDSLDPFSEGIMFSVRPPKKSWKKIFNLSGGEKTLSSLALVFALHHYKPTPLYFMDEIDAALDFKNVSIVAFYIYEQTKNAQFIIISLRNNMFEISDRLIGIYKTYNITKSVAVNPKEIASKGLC

In publication PMC7985502:

Tests used:
[1] = target: EGFP-tagged wild-type SEC23B (human) (UniProt Q15437); assay: affinity purification with mass spectrometry; anti-GFP (Abcam ab290) immunoprecipitation from lysates of stable Nthy-ori 3-1 cells, 10 mg total protein as 2 mg/ml lysates; cells untreated or treated with MG132 (10 uM, 24 h); normal rabbit IgG and Nthy-EGFP cells as negative controls; SDS-PAGE, then mass spectrometry
[2] = target: EGFP-tagged p.Val594Gly mutant SEC23B (human) (UniProt Q15437); assay: as above

With “26S proteasome non-ATPase regulatory subunit 2 (PSMD2) (from UniProt Q13200 1-908)” the binding [1] was “binds”.
For “78 kDa glucose-regulated protein (GRP78, HSPA5/BiP) (from UniProt P11021 19-654)”, the binding [1] was “binds”.
With “B double prime 1 (BDP1, a subunit of RNA polymerase III transcription initiation factor IIIB) (from UniProt A6H8Y1 1-2624)” the binding [1] was “binds”.
SEC23A (from UniProt Q15436 1-765) was tested, and the binding [2] was “binds” and the binding [1] was “binds”.
With SMC2 (from UniProt O95347 1-1197) the binding [1] was “binds”.
SMC3 (from UniProt Q9UQE7 1-1217) was tested, and the binding [1] was “binds”.
For SMC4 (from UniProt Q9NTJ3 1-1288), the binding [1] was “binds”.

No constants are given. Whether binding was seen depends on the method and setting. Binding seen in cells or lysates may run through a third protein. A yes stands for co-enrichment or nearness to the bait. Other partners may have been found. For some assays here: Tags and fused reporters may be left off the sequences shown.
